Results from the supplement of paper PMC10849652.
Some of the results follow. Residues, ends and D or L forms follow the SMILES beside them. *: point of attachment. Cbz = O=C(OCc1ccccc1)*

By UniProt entry, the sequences of proteins in these tests, tags left out. Where a name states a change or a piece, a line headed by the entry shows the natural chain unless it says otherwise.
UniProt O95139, whole entry, looked up: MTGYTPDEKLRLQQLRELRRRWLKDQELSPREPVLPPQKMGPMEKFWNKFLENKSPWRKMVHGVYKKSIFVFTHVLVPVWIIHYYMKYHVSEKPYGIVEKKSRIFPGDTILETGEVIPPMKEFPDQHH
UniProt Q92542, whole entry, looked up: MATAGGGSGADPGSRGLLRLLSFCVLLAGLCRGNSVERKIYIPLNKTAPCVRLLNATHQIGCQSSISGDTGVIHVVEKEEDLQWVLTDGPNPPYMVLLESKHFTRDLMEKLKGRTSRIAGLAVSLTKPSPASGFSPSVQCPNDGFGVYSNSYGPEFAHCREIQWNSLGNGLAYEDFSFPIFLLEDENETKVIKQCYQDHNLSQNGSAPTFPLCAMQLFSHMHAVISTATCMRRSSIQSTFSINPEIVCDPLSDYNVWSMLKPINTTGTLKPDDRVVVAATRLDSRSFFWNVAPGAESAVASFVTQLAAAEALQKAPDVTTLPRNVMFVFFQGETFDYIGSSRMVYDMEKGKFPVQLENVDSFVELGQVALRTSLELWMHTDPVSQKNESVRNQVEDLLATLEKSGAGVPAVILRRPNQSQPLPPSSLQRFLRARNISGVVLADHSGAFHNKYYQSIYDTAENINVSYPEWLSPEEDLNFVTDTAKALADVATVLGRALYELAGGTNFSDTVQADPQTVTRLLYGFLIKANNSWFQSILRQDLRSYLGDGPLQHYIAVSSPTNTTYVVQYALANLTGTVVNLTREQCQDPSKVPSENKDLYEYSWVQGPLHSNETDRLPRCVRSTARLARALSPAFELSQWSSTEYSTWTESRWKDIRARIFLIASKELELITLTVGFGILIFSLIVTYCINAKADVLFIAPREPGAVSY
UniProt Q9P0J0, whole entry, looked up: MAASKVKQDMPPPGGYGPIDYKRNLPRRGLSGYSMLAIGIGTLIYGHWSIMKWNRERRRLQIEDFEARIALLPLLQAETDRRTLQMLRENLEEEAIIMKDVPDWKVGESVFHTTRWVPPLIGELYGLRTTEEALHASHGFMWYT
UniProt Q68D85: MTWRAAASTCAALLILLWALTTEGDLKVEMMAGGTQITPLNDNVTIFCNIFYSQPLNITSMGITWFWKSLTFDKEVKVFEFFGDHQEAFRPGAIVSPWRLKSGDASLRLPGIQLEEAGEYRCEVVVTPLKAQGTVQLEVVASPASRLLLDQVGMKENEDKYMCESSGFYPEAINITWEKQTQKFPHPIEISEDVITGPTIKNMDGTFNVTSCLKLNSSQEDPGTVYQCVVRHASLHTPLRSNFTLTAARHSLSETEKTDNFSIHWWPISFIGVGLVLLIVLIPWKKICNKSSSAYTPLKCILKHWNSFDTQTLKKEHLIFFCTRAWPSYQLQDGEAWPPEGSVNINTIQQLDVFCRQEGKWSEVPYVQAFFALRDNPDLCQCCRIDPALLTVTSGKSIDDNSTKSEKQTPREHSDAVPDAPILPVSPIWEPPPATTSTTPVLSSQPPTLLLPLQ
UniProt P61599, whole entry, looked up: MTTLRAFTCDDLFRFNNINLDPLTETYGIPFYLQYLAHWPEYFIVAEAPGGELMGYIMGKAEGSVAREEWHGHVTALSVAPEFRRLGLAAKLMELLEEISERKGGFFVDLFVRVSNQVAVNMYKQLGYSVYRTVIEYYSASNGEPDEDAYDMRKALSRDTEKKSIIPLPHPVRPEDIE
UniProt Q96PU5: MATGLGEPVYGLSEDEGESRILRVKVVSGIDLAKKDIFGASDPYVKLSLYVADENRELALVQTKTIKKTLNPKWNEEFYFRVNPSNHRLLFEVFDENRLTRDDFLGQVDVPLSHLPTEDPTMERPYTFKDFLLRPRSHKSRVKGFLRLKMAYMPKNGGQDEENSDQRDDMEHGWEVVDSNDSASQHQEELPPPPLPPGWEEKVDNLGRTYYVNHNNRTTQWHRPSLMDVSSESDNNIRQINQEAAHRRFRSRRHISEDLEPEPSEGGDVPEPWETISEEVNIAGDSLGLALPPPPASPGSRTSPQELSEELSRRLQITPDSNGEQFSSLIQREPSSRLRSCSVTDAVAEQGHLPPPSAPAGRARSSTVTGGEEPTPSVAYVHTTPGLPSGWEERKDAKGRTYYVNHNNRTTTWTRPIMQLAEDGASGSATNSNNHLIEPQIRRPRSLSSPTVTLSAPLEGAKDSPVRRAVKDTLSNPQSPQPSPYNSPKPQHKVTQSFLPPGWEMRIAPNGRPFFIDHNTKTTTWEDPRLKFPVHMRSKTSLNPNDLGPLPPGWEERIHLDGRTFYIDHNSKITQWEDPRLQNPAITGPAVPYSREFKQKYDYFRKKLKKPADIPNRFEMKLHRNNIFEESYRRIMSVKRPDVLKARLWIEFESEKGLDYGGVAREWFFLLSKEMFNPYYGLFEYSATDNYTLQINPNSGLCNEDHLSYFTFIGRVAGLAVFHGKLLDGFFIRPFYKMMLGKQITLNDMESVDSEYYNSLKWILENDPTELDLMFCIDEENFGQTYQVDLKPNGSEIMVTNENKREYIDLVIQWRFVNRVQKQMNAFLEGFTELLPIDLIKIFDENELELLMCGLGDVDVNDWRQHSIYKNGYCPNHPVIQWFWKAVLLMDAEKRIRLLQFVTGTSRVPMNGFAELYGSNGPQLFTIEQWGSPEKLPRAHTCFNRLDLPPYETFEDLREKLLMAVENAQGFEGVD
UniProt Q6IA69: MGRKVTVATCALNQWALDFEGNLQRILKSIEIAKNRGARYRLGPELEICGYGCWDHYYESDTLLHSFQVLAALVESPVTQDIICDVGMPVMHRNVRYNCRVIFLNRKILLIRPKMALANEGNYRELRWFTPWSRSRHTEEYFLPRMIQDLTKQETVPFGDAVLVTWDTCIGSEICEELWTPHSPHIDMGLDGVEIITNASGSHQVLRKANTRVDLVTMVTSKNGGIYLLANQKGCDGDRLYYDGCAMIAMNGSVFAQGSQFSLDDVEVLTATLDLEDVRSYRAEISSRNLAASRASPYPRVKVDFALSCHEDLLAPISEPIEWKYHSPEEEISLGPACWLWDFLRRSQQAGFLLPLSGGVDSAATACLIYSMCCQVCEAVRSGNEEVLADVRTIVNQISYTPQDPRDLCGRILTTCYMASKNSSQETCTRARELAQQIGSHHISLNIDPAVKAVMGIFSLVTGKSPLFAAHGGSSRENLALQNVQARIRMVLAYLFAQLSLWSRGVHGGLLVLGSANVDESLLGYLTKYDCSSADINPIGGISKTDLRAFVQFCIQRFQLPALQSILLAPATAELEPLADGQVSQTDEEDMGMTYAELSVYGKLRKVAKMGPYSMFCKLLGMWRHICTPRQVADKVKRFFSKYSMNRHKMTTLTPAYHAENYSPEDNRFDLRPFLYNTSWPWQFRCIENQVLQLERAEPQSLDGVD
UniProt P52849: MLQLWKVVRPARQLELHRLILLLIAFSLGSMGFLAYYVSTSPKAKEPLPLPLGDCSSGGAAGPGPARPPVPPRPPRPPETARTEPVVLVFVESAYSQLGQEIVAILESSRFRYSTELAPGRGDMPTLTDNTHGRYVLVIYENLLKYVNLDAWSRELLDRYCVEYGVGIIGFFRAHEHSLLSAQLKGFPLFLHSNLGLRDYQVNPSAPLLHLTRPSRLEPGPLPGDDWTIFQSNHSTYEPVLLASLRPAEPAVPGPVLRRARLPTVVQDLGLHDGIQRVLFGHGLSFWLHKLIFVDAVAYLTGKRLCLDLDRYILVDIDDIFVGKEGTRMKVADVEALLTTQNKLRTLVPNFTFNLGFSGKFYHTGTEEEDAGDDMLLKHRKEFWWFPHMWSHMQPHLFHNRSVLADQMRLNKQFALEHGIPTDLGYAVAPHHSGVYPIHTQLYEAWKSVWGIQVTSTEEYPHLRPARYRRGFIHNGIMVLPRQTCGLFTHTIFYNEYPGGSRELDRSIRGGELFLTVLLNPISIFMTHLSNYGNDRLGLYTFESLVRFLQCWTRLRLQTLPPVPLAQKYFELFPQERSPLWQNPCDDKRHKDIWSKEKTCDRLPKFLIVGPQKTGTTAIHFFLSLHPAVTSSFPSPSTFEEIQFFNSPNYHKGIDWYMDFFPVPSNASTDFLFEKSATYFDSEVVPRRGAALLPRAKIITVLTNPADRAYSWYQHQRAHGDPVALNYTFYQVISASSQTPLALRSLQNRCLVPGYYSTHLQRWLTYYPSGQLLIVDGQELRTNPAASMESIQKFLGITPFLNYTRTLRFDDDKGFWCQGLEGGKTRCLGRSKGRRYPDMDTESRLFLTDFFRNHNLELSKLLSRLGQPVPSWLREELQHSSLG
UniProt Q969V3: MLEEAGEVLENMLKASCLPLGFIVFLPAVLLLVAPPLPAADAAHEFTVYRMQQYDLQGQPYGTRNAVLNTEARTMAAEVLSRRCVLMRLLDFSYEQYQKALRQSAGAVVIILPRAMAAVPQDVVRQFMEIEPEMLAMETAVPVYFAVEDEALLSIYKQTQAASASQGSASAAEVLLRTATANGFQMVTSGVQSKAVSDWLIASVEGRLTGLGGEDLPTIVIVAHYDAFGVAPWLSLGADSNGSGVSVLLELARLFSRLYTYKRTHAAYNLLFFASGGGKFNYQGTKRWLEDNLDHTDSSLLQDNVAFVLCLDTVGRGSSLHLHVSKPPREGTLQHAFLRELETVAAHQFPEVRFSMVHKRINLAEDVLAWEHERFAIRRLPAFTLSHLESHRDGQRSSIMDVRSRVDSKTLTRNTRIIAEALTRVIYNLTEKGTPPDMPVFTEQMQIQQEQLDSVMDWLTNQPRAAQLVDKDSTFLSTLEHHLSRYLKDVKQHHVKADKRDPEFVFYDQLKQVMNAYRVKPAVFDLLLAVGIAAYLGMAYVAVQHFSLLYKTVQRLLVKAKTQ
UniProt Q9UGV2: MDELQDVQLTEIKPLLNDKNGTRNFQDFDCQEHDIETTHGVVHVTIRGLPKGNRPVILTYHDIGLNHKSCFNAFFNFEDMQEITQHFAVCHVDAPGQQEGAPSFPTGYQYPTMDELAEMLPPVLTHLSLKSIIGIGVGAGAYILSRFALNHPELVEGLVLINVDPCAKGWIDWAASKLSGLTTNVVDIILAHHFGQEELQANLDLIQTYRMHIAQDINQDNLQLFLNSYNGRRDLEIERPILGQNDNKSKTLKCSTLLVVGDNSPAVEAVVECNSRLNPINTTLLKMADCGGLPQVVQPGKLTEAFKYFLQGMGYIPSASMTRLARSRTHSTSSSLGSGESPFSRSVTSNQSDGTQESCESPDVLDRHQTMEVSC
UniProt O43181, whole entry, looked up: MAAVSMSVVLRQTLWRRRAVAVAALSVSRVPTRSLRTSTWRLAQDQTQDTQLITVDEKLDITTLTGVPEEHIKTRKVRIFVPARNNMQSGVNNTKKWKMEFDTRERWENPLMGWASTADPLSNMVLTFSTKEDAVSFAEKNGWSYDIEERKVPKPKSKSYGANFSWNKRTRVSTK
UniProt Q16795, whole entry, looked up: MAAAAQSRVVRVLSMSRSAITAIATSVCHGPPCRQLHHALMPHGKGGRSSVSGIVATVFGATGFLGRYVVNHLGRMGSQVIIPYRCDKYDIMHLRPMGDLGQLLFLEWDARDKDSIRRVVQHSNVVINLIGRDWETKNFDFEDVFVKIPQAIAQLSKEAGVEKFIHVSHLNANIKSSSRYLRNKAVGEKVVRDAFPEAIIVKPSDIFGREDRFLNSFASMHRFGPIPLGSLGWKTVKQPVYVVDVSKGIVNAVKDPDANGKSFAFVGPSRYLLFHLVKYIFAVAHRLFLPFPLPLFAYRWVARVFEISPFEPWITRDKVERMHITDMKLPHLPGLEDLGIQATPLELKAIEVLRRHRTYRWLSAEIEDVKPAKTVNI
UniProt O75489, whole entry, looked up: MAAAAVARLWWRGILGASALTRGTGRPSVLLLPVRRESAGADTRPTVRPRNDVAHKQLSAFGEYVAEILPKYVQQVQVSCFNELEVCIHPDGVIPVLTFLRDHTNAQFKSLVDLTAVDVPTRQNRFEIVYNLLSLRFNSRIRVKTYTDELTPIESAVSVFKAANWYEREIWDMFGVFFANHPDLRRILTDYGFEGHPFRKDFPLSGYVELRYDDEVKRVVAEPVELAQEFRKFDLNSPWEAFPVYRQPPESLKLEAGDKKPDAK
UniProt Q4G0N4: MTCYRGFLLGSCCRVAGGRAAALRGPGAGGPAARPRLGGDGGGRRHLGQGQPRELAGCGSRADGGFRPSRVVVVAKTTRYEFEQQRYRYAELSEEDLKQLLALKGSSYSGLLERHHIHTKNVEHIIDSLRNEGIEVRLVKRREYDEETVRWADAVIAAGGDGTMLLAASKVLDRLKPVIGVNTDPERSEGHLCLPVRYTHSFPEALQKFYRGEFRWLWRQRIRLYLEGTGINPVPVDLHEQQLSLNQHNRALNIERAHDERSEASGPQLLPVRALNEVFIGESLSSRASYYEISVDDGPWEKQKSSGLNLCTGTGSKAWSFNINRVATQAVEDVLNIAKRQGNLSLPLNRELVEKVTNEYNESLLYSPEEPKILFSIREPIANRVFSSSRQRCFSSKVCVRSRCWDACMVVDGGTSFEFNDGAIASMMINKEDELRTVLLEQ

Experiments:
Assay in all cases: log2 fold change, soluble protein after heating vs DMSO (PISA); higher = thermal stabilisation; K562 cells, 10 uM, 30 min; active = over 0.2 and 3.5 SD of the protein, either way, in both replicates (recomputed)
erlotinib = compound: C#Cc1cccc(Nc2ncnc3cc(OCCOC)c(OCCOC)cc23)c1 [erlotinib]
How it was run: (§1)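 Soluble protein was defined as the supernatant after 21,000xg for 90 min. It came from K562 cells at 2×10^6 cells/mL given 10 μM compound for 30 min, heated in aliquots for 3 min across 48°C-58°C, pooled, and extracted in PBS with 0.5% NP-40 at 4°C, and was quantified by TMTpro 16plex LC-MS/MS with equalised channel sums. Thermal stability against control samples, from duplicates, is reported as log2 fold change.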

[1] = compound: C/C(=N\NC(=O)C1=CC(=CC=C1)S(=O)(=O)N2CCOCC2)/C3=C(C=CC(=C3)Cl)O
How it was run: as §1

[2] = compound: C1=CC(=C(C=C1Cl)C2=NC3=NC=CN=C3C(=N2)NC4=CC=NC=C4)F
How it was run: as §1

[3] = compound: C1=CC(=CC=C1C2=NC3=C(N2)C=C(C=C3)C(=O)N)OC4=CC=C(C=C4)Cl
How it was run: as §1

[4] = compound: C1=CC2=C(C=CC(=C2)/C=C\3/C(=O)NC(=NCC4=CC=CS4)S3)N=C1
How it was run: as §1

[5] = compound: C1=CC2=NC=CN=C2C=C1/C=C/3\C(=O)NC(=O)S3
How it was run: as §1

[6] = compound: C1=CC=C(C=C1)C2=NC(=C(N2)C3=CC=NC=C3)C4=CC(=C(C=C4)Cl)O
How it was run: as §1

[7] = compound: C1=CC=C2C(=C1)C3=NNC4=CC=CC(=C43)C2=O
How it was run: as §1

[8] = compound: C1CCN(C1)C(=O)NC2=CC=CC(=C2)NC3=NC=C(C(=N3)NCCC4=CN=CN4)Br
How it was run: as §1

[9] = compound: C1CN(CCC1(CC2=CC=C(C=C2)Cl)N)C3=NC=NC4=C3C=CN4
How it was run: as §1

IRAK-1-4 Inhibitor I = compound: C1COCCN1CCN2C3=CC=CC=C3N=C2NC(=O)C4=CC(=CC=C4)[N+](=O)[O-] [IRAK-1-4 Inhibitor I]
How it was run: as §1

ibrutinib = compound: C=CC(=O)N1CCC[C@@H](n2nc(-c3ccc(Oc4ccccc4)cc3)c3c(N)ncnc32)C1 [ibrutinib]
How it was run: as §1

[10] = compound: CC(=O)c1cnc2ccc(-c3cc(Cl)c(O)c(Cl)c3)nc2c1N[C@H]1CC[C@H](CN(C)C)CC1
How it was run: as §1

ralimetinib = compound: CC(C)(C)Cn1c(N)nc2ccc(-c3[nH]c(C(C)(C)C)nc3-c3ccc(F)cc3)nc21 [ralimetinib]
How it was run: as §1

[11] = compound: CC(C)(O)CC(=O)NCCn1ccc2ncnc(Nc3ccc(Oc4cccc(C(F)(F)F)c4)c(Cl)c3)c21
How it was run: as §1

[12] = compound: CC(C)C1=C2N=C(C=C(N2N=C1)NCC3=CC=CC=C3)NCCCCCCN
How it was run: as §1

[13] = compound: CC(C)C[C@@H](C=O)NC(=O)[C@H](CC(C)C)NC(=O)[C@H](CC(C)C)NC(=O)OCc1ccccc1
How it was run: as §1

pinometostat = compound: CC(C)N(C[C@H]1O[C@@H](n2cnc3c(N)ncnc32)[C@H](O)[C@@H]1O)[C@H]1C[C@@H](CCc2nc3cc(C(C)(C)C)ccc3[nH]2)C1 [pinometostat]
How it was run: as §1

[14] = compound: CC1=C(C(CC(=O)N1)C2=CC=C(C=C2)C(F)(F)F)C(=O)NC3=C(C=C4C(=C3)C=NN4)F
How it was run: as §1

[15] = compound: CC1=C(C2=C(C=C1)C(=O)C3=CC=CC=C3N2CCCN)C
How it was run: as §1

Measured: log2 fold change

NDUFB6 (UniProt O95139)
inactive: erlotinib -0.013 | [1] -0.026 | [2] -0.009 | [3] 0.019 | [4] -0.064 | [5] 0.016 | [6] -0.002 | [7] -0.016 | [8] 0.038 | [9] -0.036 | IRAK-1-4 Inhibitor I 0.011 | ibrutinib 0.034 | [10] -0.03 | ralimetinib -0.079 | [11] 0.025 | [12] -0.06 | [13] 0.019 | pinometostat -0.023 | [14] 0.033 | [15] -0.098

NCSTN (UniProt Q92542)
inactive: erlotinib 0.04 | [1] -0.031 | [2] -0.02 | [3] -0.001 | [4] 0.016 | [5] 0.079 | [6] 0.019 | [7] 0.008 | [8] 0.014 | [9] 0.013 | IRAK-1-4 Inhibitor I 0.022 | ibrutinib -0.004 | [10] -0.086 | ralimetinib -0.014 | [11] -0.014 | [12] 0.017 | [13] -0.03 | pinometostat -0.068 | [14] 0.002 | [15] 0.077

NDUFA13 (UniProt Q9P0J0)
inactive: erlotinib -0.003 | [1] 0.067 | [2] 0.081 | [3] -0.026 | [4] 0.017 | [5] 0.023 | [6] 0.022 | [7] 0.008 | [8] -0.056 | [9] 0.054 | IRAK-1-4 Inhibitor I -0.084 | ibrutinib 0.007 | [10] 0.012 | ralimetinib -0.048 | [11] -0.06 | [12] -0.156 | [13] -0.007 | pinometostat -0.016 | [14] -0.016 | [15] 0.013

NCR3LG1 (UniProt Q68D85)
inactive: erlotinib -0.017 | [1] -0.191 | [2] -0.056 | [3] -0.002 | [4] -0.135 | [5] 0.005 | [6] 0.05 | [7] 0.123 | [8] -0.106 | [9] -0.003 | IRAK-1-4 Inhibitor I -0.003 | ibrutinib 0.049 | [10] 0.055 | ralimetinib -0.029 | [11] 0.069 | [12] 0.12 | [13] 0.035 | pinometostat -0.014 | [14] -0.005 | [15] 0.126

NAA15, A0A0B4J1W3
inactive: erlotinib -0.006 | [1] 0.096 | [2] 0.097 | [3] 0.029 | [4] 0.035 | [5] -0.052 | [6] 0.063 | [7] -0.034 | [8] -0.012 | [9] 0.015 | IRAK-1-4 Inhibitor I 0.024 | ibrutinib 0.05 | [10] 0.048 | ralimetinib -0.084 | [11] -0.047 | [12] 0.068 | [13] -0.154 | pinometostat -0.02 | [14] 0.293 | [15] 0.129

NAA20 (UniProt P61599)
inactive: erlotinib 0.009 | [1] 0.089 | [2] 0.002 | [3] 0.117 | [4] 0.021 | [5] -0.047 | [6] 0.085 | [7] 0.091 | [8] -0.038 | [9] 0.024 | IRAK-1-4 Inhibitor I 0.014 | ibrutinib 0.03 | [10] -0.099 | ralimetinib -0.024 | [11] 0.016 | [12] -0.022 | [13] 0 | pinometostat -0.043 | [14] -0.013 | [15] 0.021

NEDD4L (UniProt Q96PU5)
active: ralimetinib -0.293
inactive: erlotinib 0.014 | [1] 0.078 | [2] -0.078 | [3] 0.005 | [4] 0.016 | [5] 0.035 | [6] 0.146 | [7] 0.019 | [8] -0.026 | [9] -0.076 | IRAK-1-4 Inhibitor I 0.026 | ibrutinib -0.002 | [10] -0.014 | [11] -0.01 | [12] -0.107 | [13] -0.059 | pinometostat 0.027 | [15] -0.084

NADSYN1 (UniProt Q6IA69)
inactive: erlotinib -0.028 | [1] 0.012 | [2] -0.011 | [3] 0.026 | [4] -0.018 | [5] -0.033 | [6] 0.097 | [7] -0.02 | [8] -0.029 | [9] 0.048 | IRAK-1-4 Inhibitor I 0.062 | ibrutinib 0.011 | [10] -0.013 | ralimetinib -0.008 | [11] -0.023 | [12] 0.061 | [13] -0.007 | pinometostat -0.007 | [14] 0.025 | [15] 0.018

NDST2 (UniProt P52849)
inactive: erlotinib -0.085 | [1] -0.07 | [2] -0.021 | [3] 0.05 | [4] 0.033 | [5] 0.135 | [6] -0.039 | [7] -0.04 | [8] -0.028 | [9] 0.002 | IRAK-1-4 Inhibitor I -0.034 | ibrutinib -0.153 | [10] -0.119 | ralimetinib 0.024 | [11] 0.013 | [12] -0.103 | [13] 0.102 | pinometostat 0.048 | [14] -0.041 | [15] -0.01

NCLN (UniProt Q969V3)
inactive: erlotinib -0.005 | [1] -0.029 | [2] 0 | [3] -0.027 | [4] -0.011 | [5] 0.014 | [6] -0.013 | [7] 0.001 | [8] 0.006 | [9] 0.052 | IRAK-1-4 Inhibitor I 0.02 | ibrutinib -0.021 | [10] 0.02 | ralimetinib 0.008 | [11] 0.003 | [12] -0.102 | [13] -0.004 | pinometostat 0.049 | [14] -0.004 | [15] -0.022

NDRG3 (UniProt Q9UGV2)
inactive: erlotinib -0.017 | [1] -0.048 | [2] 0.061 | [3] 0.033 | [4] 0.026 | [5] 0.047 | [6] -0.135 | [7] -0.057 | [8] 0.016 | [9] 0.018 | IRAK-1-4 Inhibitor I 0.001 | ibrutinib -0.009 | [10] -0.011 | ralimetinib -0.088 | [11] -0.021 | [12] -0.036 | [13] 0.121 | pinometostat 0.003 | [14] -0.006 | [15] -0.057

Random excerpt: 2 entries already listed.
NAA15, A0A0B4J1W3
inactive: erlotinib -0.006 | [1] 0.096 | [2] 0.097 | [3] 0.029 | [4] 0.035 | [5] -0.052 | [6] 0.063 | [7] -0.034 | [8] -0.012 | [9] 0.015 | IRAK-1-4 Inhibitor I 0.024 | ibrutinib 0.05 | [10] 0.048 | ralimetinib -0.084 | [11] -0.047 | [12] 0.068 | [13] -0.154 | pinometostat -0.02 | [14] 0.293 | [15] 0.129

NDST2 (UniProt P52849)
inactive: erlotinib -0.085 | [1] -0.07 | [2] -0.021 | [3] 0.05 | [4] 0.033 | [5] 0.135 | [6] -0.039 | [7] -0.04 | [8] -0.028 | [9] 0.002 | IRAK-1-4 Inhibitor I -0.034 | ibrutinib -0.153 | [10] -0.119 | ralimetinib 0.024 | [11] 0.013 | [12] -0.103 | [13] 0.102 | pinometostat 0.048 | [14] -0.041 | [15] -0.01

Carrying on.

NAA15 (UniProt Q9BXJ9)
inactive: erlotinib 0.004 | [1] 0.018 | [2] 0.059 | [3] 0.012 | [4] 0.013 | [5] -0.079 | [6] 0.008 | [7] -0.012 | [8] -0.002 | [9] 0.037 | IRAK-1-4 Inhibitor I 0.017 | ibrutinib -0.004 | [10] -0.054 | ralimetinib -0.054 | [11] -0.01 | [12] -0.003 | [13] -0.045 | pinometostat -0.034 | [14] 0.016 | [15] 0.031

NDUFS4 (UniProt O43181)
active: [13] 0.274
inactive: erlotinib -0.001 | [1] -0.031 | [2] -0.004 | [3] 0.07 | [4] -0.093 | [5] 0.077 | [6] -0.104 | [7] -0.081 | [8] 0.082 | [9] 0.111 | IRAK-1-4 Inhibitor I 0.076 | ibrutinib 0.029 | [10] 0.062 | ralimetinib 0.015 | [11] 0.022 | [12] 0.007 | pinometostat 0.013 | [15] -0.193

NDUFA9 (UniProt Q16795)
inactive: erlotinib -0.031 | [1] 0.035 | [2] 0.059 | [3] 0.03 | [4] 0.031 | [5] -0.016 | [6] 0.025 | [7] 0.047 | [8] 0.005 | [9] 0.024 | IRAK-1-4 Inhibitor I 0.003 | ibrutinib -0.036 | [10] -0.037 | ralimetinib -0.011 | [11] -0.211 | [12] -0.101 | [13] 0 | pinometostat -0.006 | [15] 0.086

NDUFS3 (UniProt O75489)
inactive: erlotinib 0.017 | [1] 0.003 | [2] 0.031 | [3] 0.038 | [4] 0.016 | [5] 0.021 | [6] 0.08 | [7] 0.005 | [8] -0.057 | [9] 0.012 | IRAK-1-4 Inhibitor I 0.141 | ibrutinib -0.012 | [10] -0.035 | ralimetinib 0.018 | [11] -0.053 | [12] -0.065 | [13] 0.023 | pinometostat 0.018 | [14] 0.014 | [15] 0.011

NADK2 (UniProt Q4G0N4)
inactive: erlotinib 0.019 | [1] 0.022 | [2] 0.079 | [3] -0.019 | [4] 0.027 | [5] 0.034 | [6] -0.022 | [7] -0.074 | [8] 0.025 | [9] 0.048 | IRAK-1-4 Inhibitor I 0.05 | ibrutinib 0.026 | [10] -0.009 | ralimetinib -0.026 | [11] -0.016 | [12] 0.023 | [13] 0.016 | pinometostat -0.013 | [14] -0.003 | [15] 0.021
